This assay is described as follows: IkB Signaling. Particulars: ABC-DLBCL IkBa-CBG/CBR dual luciferase ratio (green luciferase fused to IkBa over red control in OCI-Ly3 lymphoma cells), 4 h. Put shortly: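 In this assay, an IκBα–CBG68 fusion accumulates when IKK-driven degradation is blocked; native CBR normalizes for cell number. OCI-Ly3 cells were treated 4 h with compound and doxycycline, then green and red light read after Chroma-Glo addition.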
The mark [1] stands for this setting: measured here: control luc red channel unless noted.
[2] abbreviates: measured here: IkB-luc green channel.
Setting [3] is: measured here: control luc red channel.

This is one part of the list. Further columns of the screen follow, without active or inactive calls. The list favours compounds with an active or inconclusive main result. Words in brackets tell the shape of the fitted curve; partial curves, single points and poor fits give uncertain potencies.

As for `CC(=O)c1[nH]c(C)c(C(=O)NCCc2ccc(C)cc2)c1C`, the AC50 under setting [1] is 31.6 µM [falling, single point]. For the compound `COc1ccc(-c2noc(-c3ccc(NCc4ccccc4OC)c([N+](=O)[O-])c3)n2)cc1`, the half-maximal activity concentration (AC50) under setting [1] is 7.94 µM [falling, partial curve].

As for `CC(=O)Nc1cccc(C(=O)NCc2ccc3c(c2)CCN3C(C)=O)c1`, the AC50 under setting [1] was 0.01 µM [falling, full curve, poor fit]. On the same count and under the same terms, the figure for `CCOC(=O)Cc1csc(NC(=O)CS(=O)(=O)Cc2ccccc2)n1` is 10 µM [falling, partial curve]. On the same count and under the same terms, the figure for `CCOc1ccccc1N(C)C(=O)C1CCCN(c2ncnc3onc(-c4ccc(F)cc4)c23)C1` (stereo not drawn) is 39.8 µM [falling, single point]. Still for that read-out and setting: for `Cc1c(CCNC(=O)Cc2ccccc2)sc2nc(-c3ccc(F)cc3)nn12` the value was 31.6 µM [falling, single point]; for `O=C(CN1CCN(Cc2ccc(Cl)cc2)C1=O)NCc1ccc(F)cc1`, 10 µM [falling, partial curve]; for `CCCCN(CC)CCCNC(=O)c1cc2c(-c3ccc(OC)c(OC)c3)nn(C)c2s1`, 25.1 µM [falling, single point]. Consider `CCN(CC)C(=O)Oc1ccc2c(=O)c(-c3ccc(OC)cc3)c(C)oc2c1`, for which the AC50 under setting [1] is 20 µM [falling, partial curve]. Take `O=C(NCc1ccc(F)cc1)c1ccc(NC(=O)N2CC3CCCN3c3ccccc32)cc1` (stereo not drawn): the AC50 under setting [1] was 5.01 µM [falling, partial curve].

Regarding `O=C1c2oc3ccc(F)cc3c(=O)c2C(c2cccc([N+](=O)[O-])c2)N1CCCN1CCOCC1` (stereo not drawn), the AC50 under setting [1] is 20 µM [falling, single point]. On the same count and under the same terms, for `CCc1ccc(CN(C(=O)c2cc3ccccc3oc2=O)C2CCS(=O)(=O)C2)cc1` (stereo not drawn) the value was 25.1 µM [falling, partial curve]; for `Cc1ccc2nc(N(Cc3cccnc3)C(=O)C3COc4ccccc4O3)sc2c1` (stereo not drawn), 10 µM [rising, partial curve]. On the same count and under the same terms, the figure for `CCCCNC(=O)CCCn1c(=O)c2ccccc2n(Cc2ccccc2C)c1=O` is 0.0251 µM [rising, full curve]; for `COc1ccc2cc3cc(C(=O)NCC4COc5ccccc5O4)oc3nc2c1` (stereo not drawn) it is 3.16 µM [falling, single point]; for `CCc1c(C)sc2c1CCN(Cc1ccc(F)cc1)C2c1ccccc1` (stereo not drawn) it is 31.6 µM [falling, partial curve, poor fit]. In the case of `CCC(C)(C)n1nnnc1C(c1ccc(O)c(OC)c1)N1CCN(c2nc3ccccc3s2)CC1` (stereo not drawn), the AC50 is, setting by setting: under setting [2], 15.8 µM [rising, partial curve]; under setting [3], 10 µM [falling, partial curve]. Turning to `Cc1coc2cc3oc(=O)c(CC(=O)N4CCCCC4)c(C)c3cc12`, under setting [1], the AC50 was 39.8 µM [falling, single point]. Still for that read-out and setting: for `Cc1cc(C)c2c(=O)cc(C(=O)Nc3nc4ccc(F)cc4s3)oc2c1` the value was 0.0316 µM [falling, full curve]; for `CCCN(CCC)CC(O)Cn1cc(/C=C/C(=O)c2ccc(OC)cc2)c2ccccc21` (stereo not drawn), 15.8 µM [falling, partial curve]. In the case of `CCC(CC)C(=O)Nc1c(C(=O)N2CCN(c3ccccc3)CC2)oc2ccccc12`, the AC50 under setting [1] was 15.8 µM [falling, partial curve]. As to `CCC(C)(C)n1nnnc1C(c1cc2ccc(OC)cc2[nH]c1=O)N1CCc2ccccc2C1` (stereo not drawn), the AC50 was 10 µM [rising, partial curve] under setting [2] and 3.16 µM [falling, partial curve] under setting [3]. Turning to `O=C(Nc1ccc(F)cc1)c1ccc(Cn2nc(N3CCN(c4ccccc4)CC3)ccc2=O)o1`, the AC50 under setting [1] was 2.51 µM [falling, full curve].

On to `C=CCn1c(=O)[nH]c2cc(C(=O)N3CCN(c4ccc(C(C)=O)cc4)CC3)ccc2c1=O`, for which, under setting [1], the AC50 is 25.1 µM [falling, partial curve]. Still for that read-out and setting: for `Cn1c(=O)c2c(nc(CN3CCN(C(=O)c4ccco4)CC3)n2CCc2ccccc2)n(C)c1=O` the value was 200 nM [rising, full curve] [measured here: IkB-luc green channel]; for `COc1cccc(-c2cc(C(=O)N3CCN(c4ccccc4OC)CC3)no2)c1`, 25.1 µM [falling, single point]. Still for that read-out and setting: the figure for `COc1ccc(Cl)cc1NC(=O)Cc1coc2c(C)c(C)ccc12` is 15.8 µM [falling, partial curve]; for `O=C(CSc1c2c(nc3ccc(Cl)cc13)CCCC2)NCc1ccccc1Cl` it is 5.01 µM [falling, partial curve]; for `COc1ccc(CCNC(=O)c2cc(=O)c3cc(C)cc(C)c3o2)cc1OC` it is 15.8 µM [falling, single point].

With `Cc1cc(C)n(-c2ccc(C(=O)OCc3nnc(-c4ccccc4)o3)cc2)n1`, the AC50 under setting [1] was 15.8 µM [falling, partial curve]. On the same count and under the same terms, the figure for `COc1ccc(C(C(O)C(=O)c2c[nH]c3ccccc23)N2CCN(c3ccccc3)CC2)cc1` (stereo not drawn) is 25.1 µM [falling, partial curve]; for `CCOc1ccc(OCc2cccc(C(=O)N3CCOCC3)c2)cc1` it is 5.01 µM [falling, partial curve]. On the same count and under the same terms, the figure for `CC1CCN(c2nc3c(-c4cccc(Br)c4)nnn3c3ccccc23)CC1` is 1.26 µM [falling, full curve]; for `COc1ccc(CNC(=O)CCc2c(C)nn(-c3ccc(N4CCCCC4)nn3)c2C)cc1` it is 12.6 µM [falling, partial curve]; for `Cc1cc(C)n(CCc2nc3c4ccccc4nc(SCc4ccc(Cl)cc4)n3n2)n1` it is 3.98 µM [rising, partial curve]. Take `O=C(NC1(C(F)(F)F)N=C(c2ccccc2)N(C2CCCCC2)C1=O)c1ccc(F)cc1` (stereo not drawn): the concentration at half-maximal activity (AC50) under setting [1] was 25.1 µM [falling, single point]. Still for that read-out and setting: the figure for `Cc1ccc(C(=O)CC2(O)C(=O)N(Cc3ccccc3)c3ccccc32)o1` (stereo not drawn) is 25.1 µM [falling, single point]; for `CCOc1ccc(NC(=O)CC2C(=O)N(c3ccc(C)cc3)C(=O)N2C2CCCCC2)cc1` (stereo not drawn) it is 3.98 µM [rising, partial curve]; for `O=C(c1cccs1)N1CCCC(c2nc(-c3ccc(F)cc3)no2)C1` (stereo not drawn) it is 7.94 µM [rising, single point] [measured here: IkB-luc green channel]. Same read-out and setting: for `Cn1ccc2cc(S(=O)(=O)N3CCCC(C(=O)NCc4ccc(F)cc4)C3)ccc21` (stereo not drawn) the value was 2.51 µM [falling, full curve]; for `Cc1ccc(-c2noc(C3CCCN(C(=O)c4c(F)cccc4F)C3)n2)cc1` (stereo not drawn), 15.8 µM [falling, partial curve]; for `COC(=O)c1ccc(C2C=C(c3ccc(Cl)cc3)Nc3nc4ccccc4n32)cc1` (stereo not drawn), 12.6 µM [falling, partial curve]. In the case of `CCOc1ccccc1-c1noc(CCCC(=O)Nc2cccc(C(F)(F)F)c2)n1`, the AC50 under setting [1] was 20 µM [falling, partial curve]. On to `O=C(CSc1nc(-c2ccc(F)cc2)nc2c1Cc1ccccc1O2)Nc1cccc(C(=O)O)c1`, for which the AC50 under setting [1] was 15.8 µM [falling, single point].

Turning to `Cc1ccc2c(c1)c(=O)c(C(=O)c1ccccc1)cn2Cc1ccccc1F`, the AC50 under setting [1] was 25.1 µM [falling, single point]. Still for that read-out and setting: the figure for `COc1ccc(NC(=O)CC2C(=O)N(c3ccccc3)C(=O)N2CCC2=CCCCC2)cc1` (stereo not drawn) is 25.1 µM [falling, partial curve]; for `CCN1C(=O)c2ccccc2S(=O)c2ccc(C(=O)NCc3ccc(C)cc3)cc21` (stereo not drawn) it is 25.1 µM [falling, single point]; for `COc1ccc(S(=O)(=O)N(CC(=O)Nc2ccc(OC)cc2OC)c2ccc(Cl)cc2)cc1` it is 15.8 µM [falling, partial curve].

On to `CCOC(=O)C(C(=O)OCC)C1N=C(N)N=C2Oc3ccccc3N21` (stereo not drawn), for which the AC50 under setting [1] is 0.0126 µM [falling, full curve]. Same read-out and setting: the figure for `COc1ccc(-c2nc(SCC(=O)c3ccc(Br)cc3)n[nH]2)cc1` is 3.98 µM [rising, full curve]; for `COc1ccc(/C=C(/C#N)c2nc(-c3cc4ccccc4oc3=O)cs2)cc1` it is 0.794 µM [rising, full curve]. Consider `CCC1CN(C(=O)Nc2ccccc2C(F)(F)F)c2ccccc2O1` (stereo not drawn), for which, under setting [1], the AC50 is 15.8 µM [falling, partial curve]. Same read-out and setting: for `Cc1cccc(N2CC(c3nc4ccc(C)cc4[nH]3)CC2=O)c1` (stereo not drawn) the value was 31.6 µM [falling, single point]; for `COc1ccccc1C(=O)Nc1c(C(=O)N2CCN(c3ccc(F)cc3)CC2)oc2ccccc12`, 25.1 µM [falling, single point]; for `COc1ccc(NC(=O)C2CCCN(C(=O)c3cnn(-c4ccccc4)c3-n3cccc3)C2)cc1` (stereo not drawn), 12.6 µM [falling, single point].

On to `Cc1ccc(-n2nc3cc(C)c(NC(=O)COc4ccccc4)cc3n2)cc1`, for which the AC50 under setting [1] was 0.2 µM [rising, full curve, poor fit]. The same measure, in the same setting: for `O=C(NCC(c1cccnc1)N1CCc2ccccc21)c1ccc(F)c(F)c1` (stereo not drawn) the value was 20 µM [falling, single point].

With `Cc1cnn(-c2nc(-c3cccs3)cc(C(F)(F)F)n2)c1`, the AC50 under setting [1] is 31.6 µM [falling, single point]. Consider `Cc1cccc(C(=O)Nc2cccc(OCc3cc(=O)n4cc(C)sc4n3)c2)c1`, for which, under setting [1], the AC50 is 1.58 µM [falling, full curve]. The same measure, in the same setting: the figure for `Cc1ccc(C(C)C)c(OCC(=O)NCC2(N3CCOCC3)CCCCC2)c1` is 31.6 µM [falling, single point]. The same measure, in the same setting: for `Cc1ccc(-n2cc3c(c2-c2ccccc2Br)c(=O)n(C)c(=O)n3C)cc1N` the value was 39.8 µM [falling, single point].

These data come from PubChem BioAssay AID445 (National Center for Advancing Translational Sciences (NCATS), 2006).
